In US5744310:

Biological target: p53 wild-type (UniProt P04637)
Assay: activity in cells
Conditions: CAT reporter pTM667-3, H358 cells; about 30 fold in Saos-2; protein in cells

“GGGAATTCCAGACTGCAGTGAGCCATGATTGGGCCACTGCACTCCAGCCTGGGCAACACAGTGAGACCCTGTCTCAAAAAAAAAAAAAAAAAAAAAAAAAAAAACAGGAAAAAACAAACAAACAGAAAAGCAGGCCTGGCGCGGTAGCTCATGCCTGTAATCCCAGCGCTTTGGAAGGCTGAGACGGGGTTATCTCTTGGGCTCACAAGTTAGAGACAAGCCTGGGCGTGGGCTATATTGCTAGATCCAGGTCTCTGCAAAAAACAAAACCACTCAGTTTTTAGTCATCTATAACGTCCTGCCTGGAAGCATGCTATTTTGGGCCTCTGAGCTTTTGCACTTGCTAATTCCTTCTGCGCTGGGGAGAGCT (double strand) [bax promoter -687 to -318]” showed an activity on this sequence of 60 fold.

The exact form of at least one protein or probe is not confirmed.
